Laboratory results reported in PubChem BioAssay AID720711 (National Center for Advancing Translational Sciences (NCATS), 2013).
In all, about 360,000 compounds went through this assay and about 290 (0.081%) were called active. Inconclusive results, whose numbers are uncertain, are shown with a selection of clear calls. The call rests on the fitted dose curve; in most records, active means well fitted activation curve with a large enough effect; inconclusive means small, poorly fitted or top-dose-only effect; inactive means no such curve, though single readings can be large or run the other way. A potency beside an inconclusive call is a rough fit, not a confirmed value.

Chains of the proteins cited; added tags and fusions are not shown. Lines headed by an entry give the natural chain unless they say otherwise; changes in a name come on top.
UniProt Q8WZA2: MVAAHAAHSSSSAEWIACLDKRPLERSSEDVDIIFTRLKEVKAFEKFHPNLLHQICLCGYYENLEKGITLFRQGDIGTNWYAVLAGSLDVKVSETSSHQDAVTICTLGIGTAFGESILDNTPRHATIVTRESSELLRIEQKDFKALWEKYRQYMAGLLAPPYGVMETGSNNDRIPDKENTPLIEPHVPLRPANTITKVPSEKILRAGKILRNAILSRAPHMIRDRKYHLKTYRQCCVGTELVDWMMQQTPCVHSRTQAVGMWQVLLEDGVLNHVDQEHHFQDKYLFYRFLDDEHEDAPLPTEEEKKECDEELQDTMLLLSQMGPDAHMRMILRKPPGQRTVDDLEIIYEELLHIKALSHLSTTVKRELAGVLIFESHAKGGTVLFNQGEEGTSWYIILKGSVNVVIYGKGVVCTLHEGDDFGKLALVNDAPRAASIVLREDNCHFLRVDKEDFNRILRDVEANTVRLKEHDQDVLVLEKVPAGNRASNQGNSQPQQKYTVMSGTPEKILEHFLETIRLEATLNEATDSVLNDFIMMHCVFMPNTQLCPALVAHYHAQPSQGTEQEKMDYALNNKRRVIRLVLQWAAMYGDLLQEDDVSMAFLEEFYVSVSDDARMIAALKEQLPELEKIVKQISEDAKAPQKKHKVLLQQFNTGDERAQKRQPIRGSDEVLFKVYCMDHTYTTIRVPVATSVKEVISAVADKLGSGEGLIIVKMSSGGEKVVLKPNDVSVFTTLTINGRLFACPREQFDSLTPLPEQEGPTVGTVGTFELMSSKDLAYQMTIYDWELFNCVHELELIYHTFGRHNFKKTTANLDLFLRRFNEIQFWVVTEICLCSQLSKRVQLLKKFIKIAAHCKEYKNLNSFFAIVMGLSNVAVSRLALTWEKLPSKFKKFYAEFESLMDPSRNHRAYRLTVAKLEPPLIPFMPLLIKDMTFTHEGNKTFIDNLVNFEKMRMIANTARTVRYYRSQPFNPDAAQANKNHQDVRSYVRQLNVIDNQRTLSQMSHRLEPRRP

target: Rap guanine nucleotide exchange factor 4 (Homo sapiens) (UniProt Q8WZA2); assay: qHTS for Agonist of cAMP-regulated guanine nucleotide exchange factor 4 (EPAC2): primary screen; conditions: biochemical qHTS; Potency: EPAC2 activation unless noted; activation: at 154 µM (top of the series), 100% = 6.5 mM cAMP response unless noted; further: nearly all actives have a fitted effect of over 50% in size
Summary of the method: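 Readout is BODIPY fluorescence (480 nm excitation, 540 nm emission), which falls as labeled GDP is exchanged off Rap1B. EPAC2 at 100 nM acted on 250 nM RAP1B-BODIPY-GDP with 50 uM GDP present.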
Potency means the concentration at half of the fitted maximal effect.

| Compound | Potency | activation |
| --- | --- | --- |
| Fc1ccc(N2CCN(c3nc(CN4CCOCC4)nc4scc(-c5ccccc5)c34)CC2)cc1 | inconclusive: 3.16 µM [activator, full curve, poor fit] | – |
| Cc1ccc(C)c(N2CCN(C(=O)CN(C)S(=O)(=O)c3ccc4c(c3)CCC(=O)N4)CC2)c1 | – | inconclusive: 7.11% [activator] |
| Cc1ccc(NC(=O)C(C)c2cccc(C(=O)c3ccccc3)c2)cc1O (stereo unspecified) | inconclusive: 70.8 µM [activator, partial curve] | – |
| CC1=Nc2ccccc2N=C(NC(=O)c2ccccc2)C1c1ccc(Cl)cc1 (stereo unspecified) | inconclusive: 39.8 µM [activator, partial curve, poor fit] | – |
| N#C/C(=C\c1ccc(-c2ccc(C(=O)O)cc2)o1)c1nc2ccccc2[nH]1 | inconclusive: 89.1 µM [activator, partial curve] | – |
| O=C(O)c1ccc2nc(-c3ccco3)c(-c3ccco3)nc2c1 | – | inactive: 8.39% |
| CN1/C(=N\O)c2cccc3cccc1c23 | inconclusive: 126 µM [activator, single point] | – |
| CCOC(=O)CC1C(=O)NCCN1c1nc2c(C)cccn2c(=O)c1/C=C1\SC(=S)N(C(C)CC)C1=O (stereo unspecified) | inconclusive: 126 µM [activator, partial curve] | – |
| COc1cc2c3nnc(-c4ccc(F)cc4)c-3cn(Cc3cccc(C)c3)c2cc1OC | inconclusive: 126 µM [activator, single point] | – |
| O=C(COC(=O)[C@H](Cc1ccccc1)N1C(=O)c2ccccc2C1=O)Nc1ccc2c(c1)OCO2 | inconclusive: 126 µM [activator, single point] | – |
| COc1ccc(Oc2nc(-c3ccccn3)ncc2OC)cc1 | – | inactive: 3.25% |
| CCOC(=O)C1CCCN(c2cc(=O)n(C3CCCCC3)c(=O)[nH]2)C1 (stereo unspecified) | – | inconclusive: 70.2% [activator] |
| CCOC(=O)C1CCN(c2ncnc3c2oc2ccc(Cl)cc23)CC1 | inconclusive: 12.6 µM [activator, full curve] | – |
| Cc1ccc(S(=O)ONc2cccc(NOS(=O)c3ccc(C)cc3)c2)cc1 (stereo unspecified) | inconclusive: 12.6 µM [activator, full curve, poor fit] | – |
| COc1cc(C(=O)/C=C/c2cccnc2)c([N+](=O)[O-])cc1OC | inconclusive: 25.1 µM [activator, single point] | – |
| Cc1ccccc1/C=C/c1nc2ccccc2c(=O)n1Cc1ccccc1 | inconclusive: 100 µM [activator, single point] | – |
| Clc1cccc(-c2nn3c(Cn4cnc5ccccc54)nnc3s2)c1 | – | inactive: 3.79% |
| O=C(N/N=C/c1c[nH]c2ccccc12)c1cccc(Cl)c1 | inconclusive: 50.1 µM [activator, single point] | – |
| O=c1[nH]c2ccccc2cc1-c1nnn(-c2ccccc2)n1 | inconclusive: 50.1 µM [activator, single point] | – |
| COC(=O)c1c(NC(=O)CC2Nc3cc(C)c(C)cc3NC2=O)sc(C)c1C (stereo unspecified) | inconclusive: 126 µM [activator, single point] | – |
| CC(C)NC(=S)NC(=O)c1ccc(-c2ccccc2)cc1 | inconclusive: 3.16 µM [activator, full curve, poor fit] | – |
| O=C(O)CSc1cc(NS(=O)(=O)c2ccc(Cl)cc2)c2ccccc2c1O | inconclusive: 112 µM [activator, partial curve] | – |

Quoted at random: two compounds from above, in no set order.

| Compound | Potency | activation |
| --- | --- | --- |
| O=C(O)c1ccc2nc(-c3ccco3)c(-c3ccco3)nc2c1 | – | inactive: 8.39% |
| CCOC(=O)C1CCCN(c2cc(=O)n(C3CCCCC3)c(=O)[nH]2)C1 (stereo unspecified) | – | inconclusive: 70.2% [activator] |

(listing goes on)

| Compound | Potency | activation |
| --- | --- | --- |
| CC(=O)Nc1sc2c(c1-c1nc3ccccc3s1)CN(C(C)C)CC2 | inconclusive: 112 µM [activator, partial curve] | – |
| CCN(CC)c1ccc2cc(C(=O)c3cccs3)c(=O)oc2c1 | active: 79.4 µM | – |
| COC(=O)COc1ccc(-c2nccc(-c3ccccn3)n2)cc1 | – | inactive: 11.2% |
| N#C/C(=C\c1ccc(Sc2ccccc2)o1)c1nc2ccccc2[nH]1 | inconclusive: 89.1 µM [activator, partial curve] | – |
| O=C(OCc1ccccc1)N1CCC2CC1c1ccc(N3CCOCC3)cc12 (stereo unspecified) | inconclusive: 35.5 µM [activator, full curve, poor fit] | – |
| Cc1oc(C)c2c(=O)ccc3c(c12)OC(N)=C(C#N)C3c1ccccc1 (stereo unspecified) | – | inactive: -1.28% |
| C#CCOCCOCCOCCNc1nc(N2CCN(C(=O)CCCCCCCCCCNC(=O)[C@H]([C@@H](C)CC)n3cc(CCCCCN)nn3)CC2)nc(N2CCN(C(=O)CCCCCCCCCCNC(=O)[C@H](CCCCN)n3cc(CCCC(=O)O)nn3)CC2)n1 | – | inactive: -2.72% |
| CN(C)c1ccc(C=c2c3cc(O)ccc3n3c2cc(-c2ccccc2)[n+]3C)cc1 | – | inactive: 3.9% |
| COc1cc(NC(=S)N2CCN(c3ccccn3)CC2)cc(OC)c1OC | inconclusive: 50.1 µM [activator, single point] | – |
| COC(=O)[C@@H](NC(=O)Nc1ccc2c(c1)OCCO2)C(C)C | – | inconclusive: 34% [activator] [at 15.6 µM, 100% = 6.5 mM cAMP response] |
| CCOc1ccc(Br)cc1C1=NN(C(C)=O)C(c2ccc([N+](=O)[O-])s2)O1 (stereo unspecified) | – | inactive: 17.2% |
| C#CCOCCOCCOCCNc1nc(N2CCN(C(=O)CCCCCCCCCCNC(=O)[C@@H](CCSC)n3cc(CCO)nn3)CC2)nc(N2CCN(C(=O)CCCCCCCCCCNC(=O)[C@H]([C@@H](C)CC)n3cc(CCCCCN)nn3)CC2)n1 | inconclusive: 44.7 µM [activator, full curve] | – |
| O=C(C1=C[C@@H](c2coc3ccccc3c2=O)C[C@@H](OCc2ccc(CO)cc2)O1)N1CCN(Cc2ccc3c(c2)OCO3)CC1 | inconclusive: 28.2 µM [activator, partial curve] | – |
| Cc1ccc(OCC(=O)O/N=C(\N)c2cccnc2)cc1 | inconclusive: 112 µM [activator, partial curve] | – |
| CCOc1ccc(C(=O)CCN2CCCCCC2)cc1 | inconclusive: 5.01 µM [activator, full curve, poor fit] | – |
| O=C(CSCc1cccc(F)c1)NCc1ccccc1 | – | inactive: -9.51% |
| CCN1/C(=C/C=C/c2oc3ccc(-c4ccccc4)cc3[n+]2CC)Oc2ccc(-c3ccccc3)cc21 | active: 63.1 µM | – |
| CCn1c(SCC(=O)Nc2cccc(O)c2)nc2c1c(=O)n(C)c(=O)n2C | – | inactive: 5.22% |
| COc1ccc(S(=O)(=O)/N=C2\C=C(NS(=O)(=O)c3ccccc3)C(=O)c3ccccc32)cc1 | inconclusive: 100 µM [activator, partial curve] | – |
| O=c1oc(-c2ccccc2NS(=O)(=O)c2ccccc2)nc2ccccc12 | – | inconclusive: 54.7% [activator] [at 15.6 µM, 100% = 6.5 mM cAMP response] |
| Cc1cc(-c2csc(N)n2)c(C)n1CCC(C)C | – | inconclusive: 42% [activator] [at 15.6 µM, 100% = 6.5 mM cAMP response] |
| COc1ccc(C(C)(O)c2nc(-c3ccccc3OC)cs2)cc1 (stereo unspecified) | – | inactive: 19.7% |

| Compound | Potency | activation |
| --- | --- | --- |
| COc1ccc(/C=C2/SC(c3ccc(C)cc3)=NC2=O)cc1OC | – | inactive: 9.33% |
| CCCCc1ccc(S(=O)(=O)NC(=O)C2(C)CCN2C(=O)Cc2ccccc2)cc1 (stereo unspecified) | – | inactive: -2.99% |
| CN1CCN(C2=CC3=CC(=C(C#N)C#N)CCC3CC2)CC1 (stereo unspecified) | active: 100 µM | – |
| CCc1nnc(NS(=O)(=O)c2ccc(NCc3cc(Cl)cc(Cl)c3O)cc2)s1 | – | inactive: 1.65% |
| CCC(C)c1ccc(Nc2ncccc2C#N)cc1 (stereo unspecified) | inconclusive: 10 µM [activator, partial curve] | – |
| CN(C)S(=O)(=O)c1cccc(C(=O)Nc2cc(S(=O)(=O)N3CCOCC3)ccc2N2CCCC2)c1 | – | inactive: 2.37% |
| CCc1ccc(/C=C2\SC(=S)N(CCCC(=O)Nc3ccccn3)C2=O)cc1 | inconclusive: 112 µM [activator, partial curve] | – |
| CC(=O)N1N=C(c2cccc([N+](=O)[O-])c2)OC1c1cccc(Br)c1 (stereo unspecified) | inconclusive: 35.5 µM [activator, single point] | – |
| O=C1C(=C(I)I)c2ccccc2-c2ccccc21 | inconclusive: 100 µM [activator, partial curve] | – |
| CC(=O)Nc1nc(CC(C)C)cc(-c2ccccc2)c1C#N | – | inactive: 4.79% |
| CCOc1ccc2c(ccc(/C=C/c3cc(C)c4cccnc4c3O)[n+]2C)c1 | inconclusive: 22.4 µM [activator, full curve, poor fit] | – |
| O=C1c2cccc3c(O)ccc(c23)C(=O)N1Cc1ccco1 | active: 100 µM | – |
| N#C/C(=C\c1ccc(N2CCOCC2)o1)c1nc2ccccc2[nH]1 | active: 50.1 µM | – |
| CCN1CCN(C2=CC3=CC(=C(C#N)C#N)CCC3CC2)CC1 (stereo unspecified) | active: 25.1 µM | – |
| Cc1ccc(C)c(CSC2=NCCN2S(=O)(=O)c2ccccc2)c1 | – | inactive: 10.4% |
| CC(C)CCNC(=O)CCc1nnc(COc2ccccc2)o1 | inconclusive: 50.1 µM [activator, single point] | – |
| CC(/C=C/c1ccc(N(C)C)cc1)=N\N=C1\NC(=O)CC(C(=O)Nc2ccccc2)S1 (stereo unspecified) | inconclusive: 100 µM [activator, partial curve] | – |
| Cc1ccc(C)c(S(=O)(=O)Nc2cc(SCC(=O)O)c(O)c3ccccc23)c1 | – | inactive: 3.8% |
| CCOC(=O)N1CCN(c2nc3ccccc3nc2C(C#N)C(=O)NCCc2ccccc2)CC1 (stereo unspecified) | – | inconclusive: 32.7% [activator] |
| Cc1ccc(NS(=O)(=O)c2cccc(C(=O)OCC(=O)NCc3ccco3)c2)cc1 | – | inconclusive: 41% [activator] [at 15.6 µM, 100% = 6.5 mM cAMP response] |
| O=C(Nc1ccc(N2CCOCC2)cc1)c1csc([C@H]2C[C@H](O)[C@@H](CO)O2)n1 | inconclusive: 56.2 µM [activator, single point] | – |
| COC(=O)c1ccsc1NC(=O)CSc1nnnn1-c1ccccc1SC | – | inactive: 12% |
